# Laboratory results published in US10775388B2, “Methods of using antibodies to determine periostin levels in a sample” (MEDIMMUNE, LLC, priority 2014, dated 2020).
# B1: Isoform 7: human periostin isoform 7 (SEQ ID NO:16), expressed in HEK-293-6E cells (protein, listed as Homo sapiens)
# chain: ARRTMIPFLPMFSLLLLLIVNPINANNHYDKILAHSRIRGRDQGPNVCALQQILGTKKKYFSTCKNWYKKSICGQKTTVLYECCPGYMETRMETEGMETKGCPAVLPIDHVYGTLGIVGATTTQRYSDASKLREEIEGKGSFTYFAPSNEAWDNLDSDIRRGLESNVNVELLNALHSHMINKRMETLTKDLKNGMETIIPSMETYNNLGLFINHYPNGVVTVNCARIIHGNQIATNGVVHVIDRVLTQIGTSIQDFIEAEDDLSSFRAAAITSDILEALGRDGHFTLFAPTNEAFEKLPRGVLERIMETGDKVASEALMETKYHILNTLQCSESIMETGGAVFETLEGNTIEIGCDGDSITVNGIKMETVNKKDIVTNNGVIHLIDQVLIPDSAKQVIELAGKQQTTFTDLVAQLGLASALRPDGEYTLLAPVNNAFSDDTLSMDQRLLKLILQNHILKVKVGLNELYNGQILETIGGKQLRVFVYRTAVCIENSCMETEKGSKQGRNGAIHIFREIIKPAEKSLHEKLKQDKRFSTFLSLLEAADLKELLTQPGDWTLFVPTNDAFKGMTSEEKEILIRDKNALQNIILYHLTPGVFIGKGFEPGVTNILKTTQGSKIFLKEVNDTLLVNELKSKESDIMTTNGVIHVVDKLLYPADTPVGNDQLLEILNKLIKYIQIKFVRGSTFKEIPVTVYGPEIKYTRISTGGGETEETLKKLLQEEVTKVTKFIEGGDGHLFEDEEIKRLLQGDTPVRKLQANKKVQGSRRRLREGRSQGSGSGHHHHHHHH
# B2: Isoform 8: human periostin isoform 8 (SEQ ID NO:17), expressed in HEK-293-6E cells (protein, listed as Homo sapiens)
# chain: ARRTMIPFLPMFSLLLLLIVNPINANNHYDKILAHSRIRGRDQGPNVCALQQILGTKKKYFSTCKNWYKKSICGQKTTVLYECCPGYMRMEGMKGCPAVLPIDHVYGTLGIVGATTTQRYSDASKLREEIEGKGSFTYFAPSNEAWDNLDSDIRRGLESNVNVELLNALHSHMINKRMLTKDLKNGMIIPSMYNNLGLFINHYPNGVVTVNCARIIHGNQIATNGVVHVIDRVLTQIGTSIQDFIEAEDDLSSFRAAAITSDILEALGRDGHFTLFAPTNEAFEKLPRGVLERIMGDKVASEALMKYHILNTLQCSESIMGGAVFETLEGNTIEIGCDGDSITVNGIKMVNKKDIVTNNGVIHLIDQVLIPDSAKQVIELAGKQQTTFTDLVAQLGLASALRPDGEYTLLAPVNNAFSDDTLSMDQRLLKLILQNHILKVKVGLNELYNGQILETIGGKQLRVFVYRTAVCIENSCMEKGSKQGRNGAIHIFREIIKPAEKSLHEKLKQDKRFSTFLSLLEAADLKELLTQPGDWTLFVPTNDAFKGMTSEEKEILIRDKNALQNIILYHLTPGVFIGKGFEPGVTNILKTTQGSKIFLKEVNDTLLVNELKSKESDIMTTNGVIHVVDKLLYPADTPVGNDQLLEILNKLIKYIQIKFVRGSTFKEIPVTVYGPEIKYTRISTGGGETEETLKKLLQEPVRKLQANKKVQGSRRRLREGRSQGSGSGHHHHHHHH
# B3: Isoform 2: human periostin isoform 2 (SEQ ID NO:2), expressed in HEK-293-6E cells (protein, listed as Homo sapiens)
# chain: MIPFLPMFSLLLLLIVNPINANNHYDKILAHSRIRGRDQGPNVCALQQILGTKKKYFSTCKNWYKKSICGQKTTVLYECCPGYMRMEGMKGCPAVLPIDHVYGTLGIVGATTTQRYSDASKLREEIEGKGSFTYFAPSNEAWDNLDSDIRRGLESNVNVELLNALHSHMINKRMLTKDLKNGMIIPSMYNNLGLFINHYPNGVVTVNCARIIHGNQIATNGVVHVIDRVLTQIGTSIQDFIEAEDDLSSFRAAAITSDILEALGRDGHFTLFAPTNEAFEKLPRGVLERIMGDKVASEALMKYHILNTLQCSESIMGGAVFETLEGNTIEIGCDGDSITVNGIKMVNKKDIVTNNGVIHLIDQVLIPDSAKQVIELAGKQQTTFTDLVAQLGLASALRPDGEYTLLAPVNNAFSDDTLSMDQRLLKLILQNHILKVKVGLNELYNGQILETIGGKQLRVFVYRTAVCIENSCMEKGSKQGRNGAIHIFREIIKPAEKSLHEKLKQDKRFSTFLSLLEAADLKELLTQPGDWTLFVPTNDAFKGMTSEEKEILIRDKNALQNIILYHLTPGVFIGKGFEPGVTNILKTTQGSKIFLKEVNDTLLVNELKSKESDIMTTNGVIHVVDKLLYPADTPVGNDQLLEILNKLIKYIQIKFVRGSTFKEIPVTVYKPIIKKYTKIIDGVPVEITEKETREERIITGPEIKYTRISTGGGETEETLKKLLQEEVTKVTKFIEGGDGHLFEDEEIKRLLQGDTPVRKLQANKKVQGSRRRLREGRSQ
# B4: Isoform 3: human periostin isoform 3 (SEQ ID NO:3), expressed in HEK-293-6E cells (protein, listed as Homo sapiens)
# chain: MIPFLPMFSLLLLLIVNPINANNHYDKILAHSRIRGRDQGPNVCALQQILGTKKKYFSTCKNWYKKSICGQKTTVLYECCPGYMRMEGMKGCPAVLPIDHVYGTLGIVGATTTQRYSDASKLREEIEGKGSFTYFAPSNEAWDNLDSDIRRGLESNVNVELLNALHSHMINKRMLTKDLKNGMIIPSMYNNLGLFINHYPNGVVTVNCARIIHGNQIATNGVVHVIDRVLTQIGTSIQDFIEAEDDLSSFRAAAITSDILEALGRDGHFTLFAPTNEAFEKLPRGVLERIMGDKVASEALMKYHILNTLQCSESIMGGAVFETLEGNTIEIGCDGDSITVNGIKMVNKKDIVTNNGVIHLIDQVLIPDSAKQVIELAGKQQTTFTDLVAQLGLASALRPDGEYTLLAPVNNAFSDDTLSMDQRLLKLILQNHILKVKVGLNELYNGQILETIGGKQLRVFVYRTAVCIENSCMEKGSKQGRNGAIHIFREIIKPAEKSLHEKLKQDKRFSTFLSLLEAADLKELLTQPGDWTLFVPTNDAFKGMTSEEKEILIRDKNALQNIILYHLTPGVFIGKGFEPGVTNILKTTQGSKIFLKEVNDTLLVNELKSKESDIMTTNGVIHVVDKLLYPADTPVGNDQLLEILNKLIKYIQIKFVRGSTFKEIPVTVYRPTLTKVKIEGEPEFRLIKEGETITEVIHGEPIIKKYTKIIDGVPVEITEKETREERIITGPEIKYTRISTGGGETEETLKKLLQEDTPVRKLQANKKVQGSRRRLREGRSQ
# B5: Isoform 4: human periostin isoform 4 (SEQ ID NO:4), expressed in HEK-293-6E cells (protein, listed as Homo sapiens)
# chain: MIPFLPMFSLLLLLIVNPINANNHYDKILAHSRIRGRDQGPNVCALQQILGTKKKYFSTCKNWYKKSICGQKTTVLYECCPGYMRMEGMKGCPAVLPIDHVYGTLGIVGATTTQRYSDASKLREEIEGKGSFTYFAPSNEAWDNLDSDIRRGLESNVNVELLNALHSHMINKRMLTKDLKNGMIIPSMYNNLGLFINHYPNGVVTVNCARIIHGNQIATNGVVHVIDRVLTQIGTSIQDFIEAEDDLSSFRAAAITSDILEALGRDGHFTLFAPTNEAFEKLPRGVLERIMGDKVASEALMKYHILNTLQCSESIMGGAVFETLEGNTIEIGCDGDSITVNGIKMVNKKDIVTNNGVIHLIDQVLIPDSAKQVIELAGKQQTTFTDLVAQLGLASALRPDGEYTLLAPVNNAFSDDTLSMDQRLLKLILQNHILKVKVGLNELYNGQILETIGGKQLRVFVYRTAVCIENSCMEKGSKQGRNGAIHIFREIIKPAEKSLHEKLKQDKRFSTFLSLLEAADLKELLTQPGDWTLFVPTNDAFKGMTSEEKEILIRDKNALQNIILYHLTPGVFIGKGFEPGVTNILKTTQGSKIFLKEVNDTLLVNELKSKESDIMTTNGVIHVVDKLLYPADTPVGNDQLLEILNKLIKYIQIKFVRGSTFKEIPVTVYKPIIKKYTKIIDGVPVEITEKETREERIITGPEIKYTRISTGGGETEETLKKLLQEDTPVRKLQANKKVQGSRRRLREGRSQ
# Test system: periostin isoforms 2, 3, 4, 7, and 8
# Test: […] Periostin assay (4B4.B11 capture, 7B5.C4 detection) on media from periostin isoform transfections
# Format: binding, human
# Settings: harvested media diluted 1:60 or 1:100
row,Molecule,AVG ng/mL (corrected for dilution) [ng/mL]
1,B1,5337.53
2,B2,3651.05
3,B3,6655.5
4,B4,7719.50
5,B5,9720.50
